In patent US20070282004A1, “Use of a Cyclopentenone Prostaglandin for Delaying for the Onset and/or Preventing the Continuation of Labour” (Imperial College Innovations Limited, priority 2003, published 2007):
At least one compound was matched to its structure with a doubt left.

Chains of the proteins cited; added tags and fusions are not shown. Residues count along the entry.
UniProt P19838, 1-433 limits assumed: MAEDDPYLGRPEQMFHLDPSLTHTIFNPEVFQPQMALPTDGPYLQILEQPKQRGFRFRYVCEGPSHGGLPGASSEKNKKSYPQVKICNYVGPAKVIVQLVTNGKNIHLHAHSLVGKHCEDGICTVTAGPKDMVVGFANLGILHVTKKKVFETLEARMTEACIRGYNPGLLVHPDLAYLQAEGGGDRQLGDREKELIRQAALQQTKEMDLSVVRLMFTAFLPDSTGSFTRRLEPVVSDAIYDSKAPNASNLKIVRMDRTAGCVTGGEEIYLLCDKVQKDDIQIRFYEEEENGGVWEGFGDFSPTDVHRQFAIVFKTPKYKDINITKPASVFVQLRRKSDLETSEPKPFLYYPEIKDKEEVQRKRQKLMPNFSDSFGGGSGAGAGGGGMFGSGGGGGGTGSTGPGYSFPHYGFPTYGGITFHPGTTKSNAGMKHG
UniProt Q04206, whole entry: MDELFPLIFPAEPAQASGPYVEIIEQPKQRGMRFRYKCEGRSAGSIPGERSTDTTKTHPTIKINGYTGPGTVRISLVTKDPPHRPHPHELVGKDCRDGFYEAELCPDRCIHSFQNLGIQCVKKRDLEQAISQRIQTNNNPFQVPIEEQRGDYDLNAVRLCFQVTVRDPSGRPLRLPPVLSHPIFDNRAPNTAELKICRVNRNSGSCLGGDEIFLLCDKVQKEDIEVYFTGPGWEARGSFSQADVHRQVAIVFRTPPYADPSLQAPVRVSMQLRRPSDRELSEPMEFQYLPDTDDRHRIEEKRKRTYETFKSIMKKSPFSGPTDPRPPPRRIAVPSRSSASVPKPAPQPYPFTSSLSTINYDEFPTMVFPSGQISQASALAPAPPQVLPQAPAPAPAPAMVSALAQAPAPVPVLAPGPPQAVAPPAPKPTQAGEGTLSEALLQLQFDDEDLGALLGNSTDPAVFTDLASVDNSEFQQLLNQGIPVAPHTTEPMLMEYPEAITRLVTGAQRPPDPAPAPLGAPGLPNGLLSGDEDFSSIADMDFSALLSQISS

Key:
[1] = tested on: adipogenesis; details: Prusty et al., 2002; cited from earlier work
[2] = biological target: T1, NF-κB (Homo sapiens, UniProt P19838+Q04206); experiment: EMSA of NF-κB DNA binding in nuclear extracts of treated myometrial cells; type: cell-based
T1 construct: nuclear protein extracts from myometrial cells; endogenous in cells; host or cells: primary human myometrial cells (term, passage 1-4)
Experimental: Myometrial tissue was collected at term from the upper margin of uterine incision at the time of lower segment caesarean section either prior to the onset of labour (L−) or […] (L+). L+ samples were collected by Dr Mark Johnson and Dr S Soorrana at Chelsea & Westminster Hospital. Myometrial tissue was dissected, rinsed in PBS, and digested in serum-free DMEM containing 15 mg/ml collagenase 1A (Sigma), 15 mg/ml collagenase X, and 50 mg/ml bovine serum albumin for 45 min at 37° C. The cell suspension was filtered through a cell strainer, centrifuged at 400 g for 5 min, and the pellet re-suspended and plated out in DMEM, 10% FCS (Helena BioScience), 1% L-glutainine, 1% penicillin-streptomycin. Cells were used between passage numbers 1-4.
Nuclear and cytosolic protein extracts were obtained from cultured amnion cells as described by Schreiber et al (1989). For nuclear/cytosolic fractionation, confluent cell monolayers were scraped and lysed using a buffer containing 10 mM HEPES, 10 mM KCl, 0.1 mM EDTA, 0.1 mM EGTA, 2 mM DTT, 1% (v/v) NP-40 and complete protease inhibitor tablets (CPIs, Roche), diluted to manufacturer's instructions. Cell lysates were incubated on ice for 10 min and NP-40 added to a final concentration of 1% (v/v). Lysates were vortexed for 10 secs and centrifuged for 30 secs at 4° C., 12000 g. The supernatants were retained as the cytosolic protein extracts. The pellets were resuspended in buffer containing 10 mM HEPES, 10 mM KCl, 0.1 mM EDTA, 0.1 mM EGTA, 2 mM DTT, 400 mM NaCl, 1% NP-40 (v/v) and CPIs. Samples were shaken vigorously for 15 min in an ice bath. The nuclear protein extracts were obtained in the supernatant following a 5 min centrifugation at 4° C., 12000 g.
Sense and antisense strands (175 nmole/ml each) were incubated in annealing buffer (10 mM Tris-HCl pH7.5, 100 mM NaCl, 1 mM EDTA) for 10 min at 65° C., and allowed to cool at room temperature for 2 h. 3.5 pmole double-stranded oligonucleotides were end-labelled with 0.37 MBq ^32P(γATP) by incubating for 30 min at 37° C. with T4 polynucleotide kinase. […]

Cc1c(C)c2c(c(C)c1O)CCC(C)(COc1ccc(CC3SC(=O)NC3=O)cc1)O2 (stereo not shown) [troglitazone]
Doses that induce expression of adipogenic markers [1]: 5 to 10 µM
NF-κB DNA binding (EMSA) ([2]; 100 μM): slight reduction
NF-κB DNA binding (EMSA) ([2]; 10-50 μM doses): had no effect
IL-1β-induced NF-κB DNA binding (EMSA) ([2]; treated 2 h, then IL-1β 15 min): do not inhibit
